Reference: the supplement of paper PMC10849652
This is one part of the list.

Amino acid sequences for entries named in this document (tags omitted). A change or cut given only in a name is not applied to a line headed by its entry.
UniProt P28715: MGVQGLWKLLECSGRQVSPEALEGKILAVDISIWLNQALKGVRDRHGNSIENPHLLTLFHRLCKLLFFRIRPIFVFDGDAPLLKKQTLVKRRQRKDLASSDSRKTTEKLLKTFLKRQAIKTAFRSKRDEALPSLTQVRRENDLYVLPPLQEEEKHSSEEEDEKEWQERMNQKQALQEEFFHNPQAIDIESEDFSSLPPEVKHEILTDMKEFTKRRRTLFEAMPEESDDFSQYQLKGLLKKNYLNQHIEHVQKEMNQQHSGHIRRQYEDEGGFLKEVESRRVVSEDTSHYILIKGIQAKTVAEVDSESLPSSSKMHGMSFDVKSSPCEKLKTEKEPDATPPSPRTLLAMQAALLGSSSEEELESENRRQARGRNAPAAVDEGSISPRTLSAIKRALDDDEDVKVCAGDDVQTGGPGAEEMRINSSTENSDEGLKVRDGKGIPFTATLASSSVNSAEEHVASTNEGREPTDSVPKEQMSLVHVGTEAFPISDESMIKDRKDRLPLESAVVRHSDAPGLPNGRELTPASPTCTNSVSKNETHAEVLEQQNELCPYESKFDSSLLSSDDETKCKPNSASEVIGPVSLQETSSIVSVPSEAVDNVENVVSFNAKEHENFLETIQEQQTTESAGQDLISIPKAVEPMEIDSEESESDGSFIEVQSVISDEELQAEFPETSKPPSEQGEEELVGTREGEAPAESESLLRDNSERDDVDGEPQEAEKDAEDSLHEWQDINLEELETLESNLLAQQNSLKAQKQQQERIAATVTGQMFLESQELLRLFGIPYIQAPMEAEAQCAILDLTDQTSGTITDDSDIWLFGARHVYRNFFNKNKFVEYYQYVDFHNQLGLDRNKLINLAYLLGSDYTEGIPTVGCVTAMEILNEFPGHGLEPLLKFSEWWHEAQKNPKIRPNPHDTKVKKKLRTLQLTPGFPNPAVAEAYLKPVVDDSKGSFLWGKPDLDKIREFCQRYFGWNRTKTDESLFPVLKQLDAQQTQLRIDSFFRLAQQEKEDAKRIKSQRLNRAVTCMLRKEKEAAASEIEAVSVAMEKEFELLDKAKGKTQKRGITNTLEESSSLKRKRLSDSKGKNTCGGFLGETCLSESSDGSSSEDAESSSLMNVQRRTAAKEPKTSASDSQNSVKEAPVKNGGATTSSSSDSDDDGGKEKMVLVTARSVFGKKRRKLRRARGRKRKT
UniProt Q2NKX8: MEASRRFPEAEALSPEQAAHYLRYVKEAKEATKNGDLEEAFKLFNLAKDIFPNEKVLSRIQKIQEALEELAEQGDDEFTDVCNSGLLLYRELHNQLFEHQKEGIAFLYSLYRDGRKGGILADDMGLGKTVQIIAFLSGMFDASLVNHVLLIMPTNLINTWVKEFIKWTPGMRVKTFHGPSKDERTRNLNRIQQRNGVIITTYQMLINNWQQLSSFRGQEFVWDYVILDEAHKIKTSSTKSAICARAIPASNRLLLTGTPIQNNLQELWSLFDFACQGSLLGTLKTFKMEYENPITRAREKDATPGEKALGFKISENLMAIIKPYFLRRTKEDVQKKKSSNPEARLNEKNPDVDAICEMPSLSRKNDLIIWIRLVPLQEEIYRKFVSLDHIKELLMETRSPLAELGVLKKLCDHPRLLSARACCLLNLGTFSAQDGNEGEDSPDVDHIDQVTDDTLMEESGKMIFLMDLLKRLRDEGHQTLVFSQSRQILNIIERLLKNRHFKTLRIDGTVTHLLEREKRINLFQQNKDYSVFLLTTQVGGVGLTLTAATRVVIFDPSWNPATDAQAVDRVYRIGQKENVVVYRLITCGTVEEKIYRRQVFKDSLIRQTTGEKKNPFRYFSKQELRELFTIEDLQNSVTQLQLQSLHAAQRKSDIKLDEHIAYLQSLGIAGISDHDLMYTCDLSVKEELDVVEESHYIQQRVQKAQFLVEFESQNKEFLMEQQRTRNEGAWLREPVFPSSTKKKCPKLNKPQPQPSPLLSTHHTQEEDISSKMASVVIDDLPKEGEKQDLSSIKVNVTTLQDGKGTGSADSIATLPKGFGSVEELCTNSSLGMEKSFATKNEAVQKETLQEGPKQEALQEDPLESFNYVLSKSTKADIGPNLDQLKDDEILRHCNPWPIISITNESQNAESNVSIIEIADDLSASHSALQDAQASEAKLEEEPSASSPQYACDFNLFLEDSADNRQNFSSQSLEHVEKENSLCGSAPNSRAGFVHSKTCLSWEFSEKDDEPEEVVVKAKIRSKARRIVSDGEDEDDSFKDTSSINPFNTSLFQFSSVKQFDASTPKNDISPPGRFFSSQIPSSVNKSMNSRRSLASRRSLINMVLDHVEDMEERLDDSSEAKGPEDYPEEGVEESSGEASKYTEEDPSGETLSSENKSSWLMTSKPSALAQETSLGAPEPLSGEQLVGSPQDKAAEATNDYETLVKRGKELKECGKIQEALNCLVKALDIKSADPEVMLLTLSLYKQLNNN
UniProt Q8IUD2: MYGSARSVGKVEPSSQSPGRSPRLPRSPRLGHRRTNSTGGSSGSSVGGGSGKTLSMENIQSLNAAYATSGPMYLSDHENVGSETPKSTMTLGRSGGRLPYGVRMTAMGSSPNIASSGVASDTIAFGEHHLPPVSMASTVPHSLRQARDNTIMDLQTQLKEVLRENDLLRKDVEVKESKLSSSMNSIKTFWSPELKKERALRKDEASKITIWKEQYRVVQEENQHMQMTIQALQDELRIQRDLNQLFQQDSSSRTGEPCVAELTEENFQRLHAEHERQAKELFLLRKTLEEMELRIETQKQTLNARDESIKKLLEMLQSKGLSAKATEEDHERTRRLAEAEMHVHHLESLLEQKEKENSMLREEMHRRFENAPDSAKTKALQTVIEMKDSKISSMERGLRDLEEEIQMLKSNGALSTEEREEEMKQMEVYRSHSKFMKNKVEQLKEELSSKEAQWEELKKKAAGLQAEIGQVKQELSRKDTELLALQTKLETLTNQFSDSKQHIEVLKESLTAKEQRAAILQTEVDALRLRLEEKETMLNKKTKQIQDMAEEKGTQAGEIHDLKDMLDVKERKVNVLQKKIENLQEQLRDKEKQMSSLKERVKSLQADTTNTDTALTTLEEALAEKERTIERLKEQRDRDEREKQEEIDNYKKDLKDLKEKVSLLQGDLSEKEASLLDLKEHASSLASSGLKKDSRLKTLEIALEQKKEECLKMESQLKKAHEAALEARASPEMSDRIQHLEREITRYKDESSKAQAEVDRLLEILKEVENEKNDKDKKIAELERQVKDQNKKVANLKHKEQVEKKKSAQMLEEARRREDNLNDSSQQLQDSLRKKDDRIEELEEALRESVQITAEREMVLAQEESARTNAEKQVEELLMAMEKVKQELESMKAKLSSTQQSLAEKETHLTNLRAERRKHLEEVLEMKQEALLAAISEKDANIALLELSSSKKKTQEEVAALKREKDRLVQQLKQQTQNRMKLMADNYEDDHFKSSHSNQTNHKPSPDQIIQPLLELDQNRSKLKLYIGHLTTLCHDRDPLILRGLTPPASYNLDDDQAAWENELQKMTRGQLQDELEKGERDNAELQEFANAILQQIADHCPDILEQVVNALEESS
UniProt Q96GK7: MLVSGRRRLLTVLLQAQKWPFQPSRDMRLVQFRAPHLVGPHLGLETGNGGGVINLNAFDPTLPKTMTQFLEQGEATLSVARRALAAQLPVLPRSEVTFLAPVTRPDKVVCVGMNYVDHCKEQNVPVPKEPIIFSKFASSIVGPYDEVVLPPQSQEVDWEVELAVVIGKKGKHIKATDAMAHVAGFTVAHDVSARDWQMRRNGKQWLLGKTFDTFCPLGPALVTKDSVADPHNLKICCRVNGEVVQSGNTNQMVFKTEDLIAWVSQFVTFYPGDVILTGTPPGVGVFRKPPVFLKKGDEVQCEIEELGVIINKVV
UniProt Q13158: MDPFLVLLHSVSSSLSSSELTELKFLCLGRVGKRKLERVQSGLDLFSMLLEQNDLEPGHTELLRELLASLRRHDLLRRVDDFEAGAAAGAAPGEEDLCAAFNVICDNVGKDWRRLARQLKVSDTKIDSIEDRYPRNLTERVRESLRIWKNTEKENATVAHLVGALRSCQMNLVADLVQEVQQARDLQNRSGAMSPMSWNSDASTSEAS
UniProt Q96E09: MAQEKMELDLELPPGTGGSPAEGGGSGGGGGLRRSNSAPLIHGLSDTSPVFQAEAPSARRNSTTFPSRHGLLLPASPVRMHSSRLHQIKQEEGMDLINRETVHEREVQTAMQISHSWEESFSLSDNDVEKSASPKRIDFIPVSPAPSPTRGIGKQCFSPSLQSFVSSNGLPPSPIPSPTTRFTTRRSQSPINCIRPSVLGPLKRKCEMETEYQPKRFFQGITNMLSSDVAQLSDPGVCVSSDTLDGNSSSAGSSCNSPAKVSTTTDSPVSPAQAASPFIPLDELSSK
UniProt P07099: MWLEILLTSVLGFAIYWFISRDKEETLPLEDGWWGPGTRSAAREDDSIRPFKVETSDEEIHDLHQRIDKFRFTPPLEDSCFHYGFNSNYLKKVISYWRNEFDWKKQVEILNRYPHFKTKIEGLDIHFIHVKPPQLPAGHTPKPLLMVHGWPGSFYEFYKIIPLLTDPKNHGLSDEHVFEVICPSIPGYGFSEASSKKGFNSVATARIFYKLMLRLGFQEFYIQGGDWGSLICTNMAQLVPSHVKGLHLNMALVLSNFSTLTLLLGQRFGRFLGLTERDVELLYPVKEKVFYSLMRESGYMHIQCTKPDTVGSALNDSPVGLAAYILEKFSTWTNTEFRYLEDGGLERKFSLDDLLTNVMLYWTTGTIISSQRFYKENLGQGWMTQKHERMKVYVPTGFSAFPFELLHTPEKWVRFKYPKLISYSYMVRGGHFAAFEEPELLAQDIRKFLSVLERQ
UniProt Q5RKV6, whole entry, looked up: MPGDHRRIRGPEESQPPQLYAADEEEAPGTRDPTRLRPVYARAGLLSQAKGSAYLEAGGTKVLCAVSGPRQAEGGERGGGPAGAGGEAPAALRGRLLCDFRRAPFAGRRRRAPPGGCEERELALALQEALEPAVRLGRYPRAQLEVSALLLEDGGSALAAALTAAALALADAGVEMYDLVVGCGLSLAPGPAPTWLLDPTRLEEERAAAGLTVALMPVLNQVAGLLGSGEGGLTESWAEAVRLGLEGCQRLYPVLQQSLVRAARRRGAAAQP
UniProt O94905: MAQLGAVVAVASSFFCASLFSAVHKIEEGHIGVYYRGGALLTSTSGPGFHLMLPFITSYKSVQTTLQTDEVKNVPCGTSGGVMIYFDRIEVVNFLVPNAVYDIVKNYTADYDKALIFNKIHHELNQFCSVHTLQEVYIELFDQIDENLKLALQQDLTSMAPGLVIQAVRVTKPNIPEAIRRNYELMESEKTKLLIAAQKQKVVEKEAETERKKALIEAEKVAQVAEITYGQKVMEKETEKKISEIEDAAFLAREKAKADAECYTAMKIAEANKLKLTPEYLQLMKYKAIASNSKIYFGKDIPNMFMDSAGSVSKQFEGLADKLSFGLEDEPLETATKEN
UniProt Q9UF33: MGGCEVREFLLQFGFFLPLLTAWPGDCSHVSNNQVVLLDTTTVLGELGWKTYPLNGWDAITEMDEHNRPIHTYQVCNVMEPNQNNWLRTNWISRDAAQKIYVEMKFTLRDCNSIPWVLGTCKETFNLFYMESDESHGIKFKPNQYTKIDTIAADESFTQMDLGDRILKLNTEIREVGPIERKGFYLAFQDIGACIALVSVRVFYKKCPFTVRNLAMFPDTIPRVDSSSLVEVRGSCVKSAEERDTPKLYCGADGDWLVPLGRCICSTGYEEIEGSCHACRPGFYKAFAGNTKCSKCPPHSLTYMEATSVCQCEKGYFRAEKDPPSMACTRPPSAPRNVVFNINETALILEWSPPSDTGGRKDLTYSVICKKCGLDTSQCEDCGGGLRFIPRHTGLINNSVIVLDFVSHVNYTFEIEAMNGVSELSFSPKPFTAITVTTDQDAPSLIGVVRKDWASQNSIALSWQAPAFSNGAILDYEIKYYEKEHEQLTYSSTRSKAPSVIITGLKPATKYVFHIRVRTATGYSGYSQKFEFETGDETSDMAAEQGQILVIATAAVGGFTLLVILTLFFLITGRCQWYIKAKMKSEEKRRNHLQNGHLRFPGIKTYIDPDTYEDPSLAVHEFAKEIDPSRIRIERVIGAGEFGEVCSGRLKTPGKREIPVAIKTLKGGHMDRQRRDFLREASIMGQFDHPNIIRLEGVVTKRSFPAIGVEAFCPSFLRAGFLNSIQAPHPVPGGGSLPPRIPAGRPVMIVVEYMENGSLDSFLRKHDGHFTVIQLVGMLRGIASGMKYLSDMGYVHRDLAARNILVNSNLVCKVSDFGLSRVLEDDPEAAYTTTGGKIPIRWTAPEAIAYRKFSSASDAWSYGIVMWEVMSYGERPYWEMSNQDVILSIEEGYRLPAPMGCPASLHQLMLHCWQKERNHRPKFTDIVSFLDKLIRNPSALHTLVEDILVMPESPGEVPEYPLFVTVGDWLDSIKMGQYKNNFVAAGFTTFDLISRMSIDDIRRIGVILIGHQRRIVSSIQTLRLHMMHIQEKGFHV

What was measured:
Assay in all cases: log2 fold change, soluble protein after heating vs DMSO (PISA); higher = thermal stabilisation; K562 cells, 10 uM, 30 min; active = over 0.2 and 3.5 SD of the protein, either way, in both replicates (recomputed)
[1] = compound: C1=CC=C(C=C1)[C@H](COC2=CC3=C(C=C2)NC(=O)N3)NC(=O)C4=CC=CN(C4=O)CC5=CC(=C(C=C5)F)F
Procedure, shortened: (§1)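 Quantification of soluble protein used TMTpro 16plex LC-MS/MS, with channel sums equalised. Samples were the supernatant after 21,000xg for 90 min of pooled aliquots from K562 cells (2×10^6 cells/mL) treated with 10 μM compound for 30 min, heated for 3 min over 48°C-58°C, and extracted in PBS with 0.5% NP-40 at 4°C. Values, from duplicates, describe thermal stability against control samples on a log2 fold-change scale.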

[2] = compound: CC1=C(SC2=C1C(=N[C@H](C3=NN=C(N32)C)CC(=O)N)C4=CC=C(C=C4)Cl)C
Procedure, shortened: as §1

[3] = compound: CC1=C2C(=CC=C1)N=C(N(C2=O)C3=CC=CC=C3C)CN4C=NC5=C(N=CN=C54)N
Procedure, shortened: as §1

[4] = compound: Cc1sc2c(c1C)C(c1ccc(Cl)cc1)=N[C@@H](CC(=O)OC(C)(C)C)c1nnc(C)n1-2
Procedure, shortened: as §1

[5] = compound: c1ccc([C@@H]2C[C@H]2NC2CCNCC2)cc1
Procedure, shortened: as §1

Measured: log2 fold change

FAM120A isoform 6 (UniProt Q9NZB2)
inactive: [1] 0.103 | [2] -0.205 | [3] -0.2 | [4] 0.183 | [5] 0.031

EXOSC9 isoform 2 (UniProt Q06265)
inactive: [1] 0.025 | [2] -0.017 | [3] -0.016 | [4] 0.018 | [5] 0.062

ERCC5 (UniProt P28715)
inactive: [1] 0.18 | [2] 0.088 | [3] 0.085 | [4] 0.031 | [5] -0.077

ESF1 (UniProt Q9H501)
inactive: [1] -0.144

ESYT1 isoform 2 (UniProt Q9BSJ8)
inactive: [1] -0.063 | [2] -0.046 | [3] 0.018 | [4] 0.008 | [5] -0.046

ERCC6L (UniProt Q2NKX8)
inactive: [1] -0.118 | [2] -0.021 | [3] 0.097 | [4] 0.164 | [5] 0.061

EPHX2 (UniProt E5RI53)
inactive: [1] -0.024

ERC1 (UniProt Q8IUD2)
inactive: [1] 0.191 | [2] 0.199 | [3] 0.166 | [4] -0.01 | [5] -0.052

FAHD2A (UniProt Q96GK7)
inactive: [1] 0.049 | [2] 0.061 | [3] 0.004 | [4] -0.029 | [5] -0.015

2 consecutive entries from above:
ERCC5 (UniProt P28715)
inactive: [1] 0.18 | [2] 0.088 | [3] 0.085 | [4] 0.031 | [5] -0.077

ESF1 (UniProt Q9H501)
inactive: [1] -0.144

Following part.

FADD (UniProt Q13158)
inactive: [1] -0.055 | [2] 0.01 | [3] 0.021 | [4] 0.087 | [5] -0.024

FAM122A (UniProt Q96E09)
inactive: [1] 0.008 | [2] -0.055 | [3] -0.022 | [4] 0.158 | [5] 0.083

ERGIC3 isoform 3 (UniProt Q9Y282)
inactive: [1] -0.001 | [2] -0.016 | [3] -0.004 | [4] -0.014 | [5] 0.03

EXOSC1 (UniProt Q9Y3B2)
inactive: [1] 0.002 | [2] -0.106 | [3] -0.116 | [4] 0.033 | [5] -0.027

EPB41L2 isoform 4 (UniProt O43491)
inactive: [1] 0.005

ERVK3-1, A0A0U1RQV1
inactive: [1] 0.002 | [2] 0.028 | [3] -0.059 | [4] -0.053 | [5] 0.038

EPHX1 (UniProt P07099)
inactive: [1] 0.035 | [2] -0.018 | [3] -0.034 | [4] -0.007 | [5] 0.035

EXOC7 (UniProt Q9UPT5)
inactive: [1] -0.063 | [2] -0.001 | [3] 0.035 | [4] 0.07 | [5] -0.014

EXOSC6 (UniProt Q5RKV6)
inactive: [1] 0.05 | [2] -0.016 | [3] -0.044 | [4] -0.037 | [5] 0.006

EPN1 isoform 3 (UniProt Q9Y6I3)
inactive: [1] 0.258

ERLIN2 (UniProt O94905)
inactive: [1] -0.025 | [2] -0.048 | [3] -0.038 | [4] 0.006 | [5] -0.044

ERGIC1 (UniProt Q969X5)
inactive: [1] 0.039 | [2] 0.047 | [3] 0.006 | [4] -0.02 | [5] 0.023

ERI3 (UniProt H0Y4B0)
inactive: [1] 0.029

EPS15 (UniProt P42566)
inactive: [1] -0.036 | [2] 0.026 | [3] 0.028 | [4] -0.007 | [5] -0.012

ETNPPL (UniProt Q8TBG4)
inactive: [1] -0.16 | [2] -0.023 | [3] -0.07 | [4] 0.083 | [5] 0.017

F2 (UniProt P00734)
inactive: [1] -0.046 | [2] -0.006 | [3] 0.059 | [4] -0.015 | [5] 0.021

EPHA6 (UniProt Q9UF33)
inactive: [1] 0.084 | [2] -0.1 | [3] 0.72 | [4] 0.048 | [5] 0.281

EPB41L3 (UniProt Q9Y2J2)
inactive: [1] -0.021 | [2] 0.044 | [3] 0.043 | [4] 0 | [5] -0.003
